According to PubChem BioAssay AID493014 (National Center for Advancing Translational Sciences (NCATS), 2011):
Some of the results follow. Further columns of the screen follow, without active or inactive calls. Most of these compounds were active or inconclusive in the main read-out, so they are no random draw. Words in brackets tell the shape of the fitted curve; partial curves, single points and poor fits give uncertain potencies.

Experiment: qHTS Assay to Find Inhibitors of Chronic Active B-Cell Receptor Signaling
Conditions: ABC-DLBCL IkBa-CBG/CBR reporter, luminescence ratio (green luciferase fused to IkBa over red control in TMD8 lymphoma cells), 4 h
Method in brief: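 Cell line TMD8 (human ABC DLBCL), stably expressing tet-inducible CBG68-IkBa fusion and CBR; IMDM/0.5% FBS; cpd up to 46 uM; dox induction, 4 h, 37C/5% CO2; dual luminescence; green/red ratio; MG132 control.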

[1] = measured here: CBR red luminescence, cell number
[2] = measured here: IkBa-CBG green luminescence

SMILES	AC50 [1]	AC50 [2]
COC(=O)c1ccc(N=NN2CCOCC2)cc1	3.26 µM [rising, full curve]	
Cc1cccc(N(CC(=O)NCc2ccc3c(c2)OCO3)C(=O)CCC(=O)Nc2ccccn2)c1C	10 µM [falling, partial curve]	
O=C(Cc1cccs1)NCCn1ccc2ccccc21	0.164 µM [rising, full curve, poor fit]	
Cc1cc(Cl)ccc1OC(C)C(=O)N1CCCN(C(=O)C(C)Oc2ccc(Cl)cc2C)CC1 (stereo not given)	25.1 µM [falling, single point]	
C/C(=N\NC(=O)c1ccc(Cl)cc1)c1ccc2[nH]ccc2c1	0.316 µM [falling, full curve]	
S=C(NCc1ccco1)N/N=C/c1ccc(Cl)cc1	7.31 µM [falling, partial curve, poor fit]	
Cc1ccccc1NC(=O)C1COc2ccccc2O1 (stereo not given)	4.47 µM [rising, partial curve, poor fit]	
COc1ccccc1C(CNC(=O)c1ccc(-c2ccccc2Cl)o1)N1CCCC1 (stereo not given)	18.4 µM [falling, partial curve]	
Cc1ccc(S(=O)(=O)N2CCCC2CNC(=O)C(=O)Nc2ccc(F)cc2F)cc1 (stereo not given)	11.6 µM [falling, partial curve, poor fit]	
O=C(NCc1cccs1)c1cc(-c2cccs2)on1	0.891 µM [falling, partial curve, poor fit]	
Nc1c(C(=O)Nc2ccc(F)cc2)sc2nc(-c3ccco3)ccc12	2.82 µM [falling, full curve]	
COc1cc(/C=N/NC(=O)C(Cc2c[nH]c3ccccc23)NC(=O)OCC(C)C)cc([N+](=O)[O-])c1OCc1ccccc1 (stereo not given)	3.55 µM [falling, single point]	
CCOC(=O)N1CCN(C(=O)COc2cccc3c2CCN(Cc2ccccc2C)C3=O)CC1	8.2 µM [falling, partial curve]	
CC(=O)Nc1ccc(-c2csc(NCc3ccccc3)n2)cc1	2.51 µM [rising, full curve]	
COc1ccc(-c2cc(C#N)nc(Cl)n2)cc1		35.5 µM [falling, single point]
O=C(Nc1cccc([N+](=O)[O-])c1)Nc1ccc2c(c1)CCC2	0.562 µM [rising, full curve]	
CC1CCCCC1NC(=O)CN1C(=O)c2ccccc2S1(=O)=O (stereo not given)	20 µM [rising, single point]	
COc1ccc(Cl)cc1C(=O)NC(=S)Nc1cc(-c2nc3ccccc3[nH]2)ccc1C	7.08 µM [falling, full curve, poor fit]	
Fc1cccc(/C=N/n2c(C3CCCCC3)n[nH]c2=S)c1	35.5 µM [rising, single point]	
Cc1cccc(C(=O)NN2C(=O)C3C(c4ccccc4)C=CC(c4ccccc4)C3C2=O)c1 (stereo not given)	35.5 µM [falling, single point]	
CCn1c(=O)c2c(nc3n2CCCN3CCc2ccc(OC)c(OC)c2)n(C)c1=O	12.6 µM [falling, partial curve]	
CCOC(=O)c1ccccc1NC(=O)CSc1nc2[nH]ncc2c(=O)[nH]1	25.9 µM [falling, single point]	

13 entries from above, sorted by count of non-hydrogen atoms, low to high.
SMILES	AC50 [1]	AC50 [2]
COc1ccc(-c2cc(C#N)nc(Cl)n2)cc1		35.5 µM [falling, single point]
COC(=O)c1ccc(N=NN2CCOCC2)cc1	3.26 µM [rising, full curve]	
S=C(NCc1ccco1)N/N=C/c1ccc(Cl)cc1	7.31 µM [falling, partial curve, poor fit]	
Cc1ccccc1NC(=O)C1COc2ccccc2O1 (stereo not given)	4.47 µM [rising, partial curve, poor fit]	
Fc1cccc(/C=N/n2c(C3CCCCC3)n[nH]c2=S)c1	35.5 µM [rising, single point]	
C/C(=N\NC(=O)c1ccc(Cl)cc1)c1ccc2[nH]ccc2c1	0.316 µM [falling, full curve]	
Nc1c(C(=O)Nc2ccc(F)cc2)sc2nc(-c3ccco3)ccc12	2.82 µM [falling, full curve]	
CCOC(=O)c1ccccc1NC(=O)CSc1nc2[nH]ncc2c(=O)[nH]1	25.9 µM [falling, single point]	
COc1ccccc1C(CNC(=O)c1ccc(-c2ccccc2Cl)o1)N1CCCC1 (stereo not given)	18.4 µM [falling, partial curve]	
COc1ccc(Cl)cc1C(=O)NC(=S)Nc1cc(-c2nc3ccccc3[nH]2)ccc1C	7.08 µM [falling, full curve, poor fit]	
Cc1cccc(C(=O)NN2C(=O)C3C(c4ccccc4)C=CC(c4ccccc4)C3C2=O)c1 (stereo not given)	35.5 µM [falling, single point]	
CCOC(=O)N1CCN(C(=O)COc2cccc3c2CCN(Cc2ccccc2C)C3=O)CC1	8.2 µM [falling, partial curve]	
Cc1cccc(N(CC(=O)NCc2ccc3c(c2)OCO3)C(=O)CCC(=O)Nc2ccccn2)c1C	10 µM [falling, partial curve]	

(list continues)

SMILES	AC50 [1]	AC50 [2]
Cc1ccc(Nc2nc(-c3cccnc3)cs2)cc1Cl	5.62 µM [rising, partial curve, poor fit]	
O=S(=O)(c1ccc(Cl)cc1)c1cnc2ccccc2n1	10 µM [falling, partial curve, poor fit]	
COc1cccc(NC(=O)CN(c2cccc(C(F)(F)F)c2)S(C)(=O)=O)c1	7.94 µM [falling, partial curve]	
C[C@@H]1CC=C[C@H]2[C@H]1C(=O)N(Cc1ccccc1)[C@H]2c1ccc(-c2ccoc2)cc1F	35.5 µM [falling, single point]	
O=C(/C=C/c1ccco1)NC(=S)Nc1cccc(C(=O)O)c1	8.91 µM [falling, partial curve]	
NC(=O)c1sc2nc(-c3cccnc3)ccc2c1N	0.708 µM [rising, partial curve, poor fit]	
CN(C)c1ccc(-c2nn3c(-c4cccnc4)nnc3s2)cc1	14.6 µM [rising, partial curve, poor fit]	
O=C(O)c1ccc(CNc2ccccc2C(=O)O)cc1	16.4 µM [falling, single point]	
N#C/C(=C\c1ccncc1)C(=O)Nc1ccc(C(=O)O)cc1	7.08 µM [falling, partial curve]	
Cc1nc(N2N=C3/C(=C/c4ccc(F)cc4)CCCC3C2c2ccc(F)cc2)sc1C(=O)N(C)C (stereo not given)	29.1 µM [falling, single point]	
O=C(CCc1ccc(S(=O)(=O)N2CCOCC2)cc1)OCc1nc2ccccc2s1	3.98 µM [rising, partial curve, poor fit]	
CCc1c(C)nc(SCCOc2ccc(OC)cc2)[nH]c1=O		31.6 µM [falling, partial curve, poor fit]
COc1ccc(NC(=O)CCN2CCCCC2)cc1	4.61 µM [falling, full curve, poor fit]	
Cn1c(=O)c(C(=O)Nc2ccccc2S(N)(=O)=O)c(O)c2ccccc21	0.794 µM [falling, partial curve]	
N#CC1=C(N)OC2=C(CC/C2=C\c2ccccc2)C1c1ccccc1 (stereo not given)	11.2 µM [falling, partial curve]	
Cc1occc1C(=O)NNC(=S)Nc1ccccc1C(F)(F)F	25.9 µM [falling, partial curve]	
O=C(Nc1cccc(F)c1)/C(=C/c1ccco1)NC(=O)c1ccco1	35.5 µM [falling, single point]	
COc1ccc(C2C(C(C)=O)=C(O)C(=O)N2c2nccs2)c(OC)c1 (stereo not given)	15.8 µM [rising, partial curve, poor fit]	
COC(=O)C1=CN(C2CC2)C=C(C(=O)OC)C1c1ccccc1OC	7.08 µM [falling, full curve, poor fit]	
Clc1ccccc1-c1nnc2sc(-c3ccncc3)nn12	5.8 µM [falling, partial curve]	
Cc1ccc2cc(CN(CC3CCCO3)C(=S)Nc3ccccc3)c(=O)[nH]c2c1 (stereo not given)	14.1 µM [falling, partial curve, poor fit]	17.8 µM [rising, partial curve, poor fit]
COc1ccc2oc(=O)c(C(=O)Nc3ccccc3C)cc2c1	8.91 µM [falling, partial curve]	

SMILES	AC50 [1]	AC50 [2]
Cc1ccc(S(=O)(=O)Nc2nc3ccccc3nc2NCc2ccco2)cc1	3.66 µM [falling, partial curve]	
Cc1[nH]c2ccccc2c1SCc1nnc(SCc2ccc(Cl)cc2)n1C	35.5 µM [falling, single point]	
O=C(OCC(=O)N1CCN(C(=O)c2ccco2)CC1)c1cc(-c2cccc(Br)c2)nc2ccccc12	32.6 µM [falling, single point]	
CCNC(=O)N1c2ccc(OCC)cc2C(C)=CC1(C)C	17.8 µM [falling, single point]	
Cc1ccc(C2NC(=O)NC3=C2CCc2ccccc23)cc1 (stereo not given)	0.891 µM [rising, full curve]	
O=C(Nc1cc(Cl)cc(Cl)c1)C1CC(=O)N(C2CCCC2)C1 (stereo not given)	25.9 µM [falling, single point]	
COc1ccccc1C(=O)Nc1ccc2c(c1)nc(CN1CCCCC1)n2C	35.5 µM [falling, single point]	
C=CC[C@@H](CC(=O)N[C@H](CO)Cc1ccccc1)C(=O)N[C@@H](COC(=O)[C@@H](CC=C)Cc1ccc(F)cc1)Cc1c[nH]c2ccccc12	29.1 µM [falling, single point]	
Cc1cccc(CC(=O)N2CCC(N3CCC(C(=O)N4CCOCC4)CC3)CC2)c1	7.94 µM [rising, partial curve, poor fit]	
O=S(=O)(CCOc1ccccc1)c1nc2ccccc2[nH]1	10.3 µM [falling, partial curve]	
O=C(NCCCNc1ccc(C(F)(F)F)cc1[N+](=O)[O-])c1ccc(F)cc1	32.6 µM [rising, single point]	
O=C(COc1ccc(Br)cc1Cl)N1CCN(c2ncccn2)CC1	6.51 µM [rising, partial curve]	
O=C(Cc1csc(NC(=O)Nc2cccc(Cl)c2)n1)NCc1ccccn1	6.51 µM [rising, single point]	
OC(CNC1Cc2ccccc2C1)COc1ccc(Cl)cc1 (stereo not given)	10 µM [rising, partial curve]	
O=C(O)/C=C/C(=O)NNC(=O)c1ccc(Cl)cc1Cl	3.98 µM [falling, full curve, poor fit]	
COc1ccc(N2CC(NC(=O)N3CCN(C(=O)c4ccco4)CC3)CC2=O)cc1OC (stereo not given)	18.4 µM [falling, partial curve, poor fit]	
CCCC/C(O)=C/c1nc2ccccc2[nH]c1=O		18.4 µM [falling, single point]
Cc1cc(C)nc(NC(=O)c2ccc(OC(C)C)cc2)n1	23.1 µM [falling, partial curve, poor fit]	
COc1cccc(N2CC34C=CC(O3)C(C(=O)O)C4C2=O)c1 (stereo not given)	5.8 µM [rising, full curve]	
Oc1cccc2c(-c3nn[nH]n3)ccnc12	5.17 µM [rising, partial curve, poor fit]	
